# Values joined by “and” are separate entries in the source; they are usually repeats but may differ in a detail not shown here. Equal values may be shown once. About 6,100 (1.1%) of roughly 580,000 compounds were called active. The shares of active, inactive and inconclusive entries below differ from those in the screen. The call rests on the fitted dose curve; in most records, active means well fitted inhibition curve with a large enough effect; inconclusive means small, poorly fitted or top-dose-only effect, or another doubt; inactive means no such curve, though single readings can be large or run the other way. Potencies beside an inconclusive call are fits to weak or partial responses and may not hold up.
# By UniProt entry, the sequences of proteins in these tests, tags left out. Where a name states a change or a piece, a line headed by the entry shows the natural chain unless it says otherwise.
# UniProt P18054: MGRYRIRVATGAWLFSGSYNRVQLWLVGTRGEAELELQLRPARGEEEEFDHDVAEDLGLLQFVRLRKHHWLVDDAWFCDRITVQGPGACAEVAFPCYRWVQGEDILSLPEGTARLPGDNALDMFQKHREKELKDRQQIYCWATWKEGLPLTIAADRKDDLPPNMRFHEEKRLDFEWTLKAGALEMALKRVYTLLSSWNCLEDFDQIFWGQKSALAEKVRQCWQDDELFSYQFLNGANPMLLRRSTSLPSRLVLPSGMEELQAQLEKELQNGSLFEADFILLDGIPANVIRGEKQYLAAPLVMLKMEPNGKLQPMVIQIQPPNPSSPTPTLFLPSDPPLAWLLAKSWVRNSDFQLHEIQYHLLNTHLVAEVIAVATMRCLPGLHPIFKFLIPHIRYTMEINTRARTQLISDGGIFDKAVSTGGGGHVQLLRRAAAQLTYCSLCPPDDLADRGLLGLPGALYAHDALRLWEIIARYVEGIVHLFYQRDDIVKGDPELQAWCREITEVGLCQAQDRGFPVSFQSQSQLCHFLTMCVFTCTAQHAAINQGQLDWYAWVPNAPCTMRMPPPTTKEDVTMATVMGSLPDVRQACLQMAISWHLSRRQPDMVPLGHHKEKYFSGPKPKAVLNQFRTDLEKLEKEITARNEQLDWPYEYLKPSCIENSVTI
# Molecular target: Polyunsaturated fatty acid lipoxygenase ALOX12 (Homo sapiens) (UniProt P18054)
# Assay: Primary qHTS assay for inhibitors of human arachidonate 12S-lipoxygenase (ALOX12): Round 2
# Conditions: purified 12hLO, xylenol orange hydroperoxide absorbance; series mostly up to 108 µM
# How it was run: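 Purified human 12hLO at 150 nM in 25 mM Hepes, 0.01% Triton X-100, pH 7.0, preincubated 15 min at room temperature with compound. Reaction started with 40 uM arachidonic acid, 30 min at room temperature. Hydroperoxide measured by Fe-xylenol orange, 573/405 nm absorbance ratio.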
# Potency means the concentration at half of the fitted maximal effect.
row,Compound,Potency
1,CCC(=O)OCCNc1cc(Sc2nc3ccccc3s2)c2nonc2c1[N+](=O)[O-],"inconclusive: 3.55 µM [inhibitor, full curve]"
2,Cc1cc2ccccn2c1/C=C/C(=O)C(F)(F)F,"inconclusive: 44.7 µM [inhibitor, partial curve, poor fit]"
3,Cc1ccc(NC(=O)CN2C(=O)N/C(=C/c3ccccc3OCc3cccc(C(=O)O)c3)C2=O)cc1,"inconclusive: 7.08 µM [inhibitor, partial curve, poor fit]"
4,Cc1ccc(CN2CCN(c3ccccc3)CC2)o1,inactive
5,COc1cc(/C=N/NC(=O)c2ccccc2Cl)ccc1Oc1ccc([N+](=O)[O-])cn1,inactive
6,CCOC(=O)/C(C#N)=C1/C=CN(Cc2ccccc2)C=N1,inactive
7,CCOc1cc(C(c2c(C)[nH][nH]c2=O)c2c(C)[nH][nH]c2=O)ccc1OC(=O)c1cccc([N+](=O)[O-])c1,"inconclusive: 112 µM [inhibitor, partial curve, poor fit]"
8,CC1=C(c2ccc(Cl)cc2)S(=O)(=O)N=C1N1CCN(c2cccc(C)c2C)CC1,"inconclusive: 15.8 µM [inhibitor, full curve, poor fit]"
9,COc1ccccc1-c1nc(SCC(=O)Nc2ccccc2)n[nH]1,inactive
10,O=C(Nc1ccccc1-c1ccccc1)c1cc(F)c(F)cc1Cl,inactive
11,C[C@@H](NC(=O)Cc1ccccc1)c1c(-c2ccc(F)cc2)noc1C(=O)O,"inconclusive: 28.2 µM [inhibitor, full curve]"
12,COc1cc(NC(=O)c2cc(=O)c3cc(C)ccc3o2)cc(OC)c1,"inconclusive: 44.7 µM [inhibitor, partial curve, poor fit]"
13,COCC(=O)N1CCCCCNC(=O)[C@@H]2CCCC[C@@H]21,"inconclusive: 31.6 µM [inhibitor, single point]"
14,COc1ccccc1-n1c(C)c2c(OC)cccc(=O)c2c1C,"inconclusive: 31.6 µM [inhibitor, partial curve, poor fit]"
15,COc1ccc([C@@]2(C(C)C)ON(c3ccccc3C(F)(F)F)C2=O)cc1,"inconclusive: 31.6 µM [inhibitor, single point]"
16,O=C(O)c1ccc2c(c1)c(C(C(=O)O)N1CCN(Cc3cccnc3)CC1)cn2Cc1ccccc1 (configuration not stated),"inconclusive: 31.6 µM [inhibitor, partial curve, poor fit]"
17,CCCCN1C(=O)c2cccc3cc(O)cc(c23)C1=O,"inconclusive: 50.1 µM [inhibitor, single point]"
18,CCOC(=O)c1cccc(NC(=O)NCc2c(-n3cccc3)sc3c2CCN(CC)C3)c1,"inconclusive: 31.6 µM [inhibitor, partial curve, poor fit]"
19,Cc1ccc2c(Cl)cc(Cl)c(OCC(=O)NC(=O)NCc3ccccc3)c2n1,"inconclusive: 7.94 µM [inhibitor, full curve]"
20,O=C(Nc1ncc(Cc2ccccc2)s1)C1CC(=O)N(Cc2ccco2)C1 (configuration not stated),"inconclusive: 39.8 µM [inhibitor, partial curve, poor fit]"
21,CC(C)CN(C(=O)COC(=O)CCSc1ccc(Cl)cc1)c1c(N)n(Cc2ccccc2)c(=O)[nH]c1=O,"inconclusive: 50.1 µM [inhibitor, single point]"

row,Compound,Potency
1,CCCCNC(=O)Cn1cc(C#N)c2ccccc21,inactive
2,CN1CCC(OC(=O)COc2ccc(Br)cc2)CC1,"inconclusive: 44.7 µM [inhibitor, partial curve, poor fit]"
3,CCc1cc2c(CN3CCN(Cc4ccccc4)CC3)cc(=O)oc2cc1O,"inconclusive: 7.08 µM [inhibitor, full curve, poor fit] and inconclusive: 35.5 µM [inhibitor, single point]"
4,O=C1CC(c2ccc(Cl)cc2)c2sc(C(=O)O)c(-c3ccc(F)cc3)c2N1 (configuration not stated),"inconclusive: 35.5 µM [inhibitor, partial curve]"
5,CCn1c2ccccc2c(=O)c2ccccc21,"inconclusive: 44.7 µM [inhibitor, partial curve, poor fit]"
6,CCC(CC)C(=O)Nc1cccc(C(=O)N2CCCC2)c1,inactive
7,O=C(CN1CCN(c2cccc(C(F)(F)F)c2)CC1)N(C1CC1)C1CCS(=O)(=O)C1 (configuration not stated),"inconclusive: 141 µM [inhibitor, single point]"
8,Cn1c(C(=O)NCCNC(=O)c2ccccc2F)cc2ccccc21,"inconclusive: 28.2 µM [inhibitor, single point]"
9,O=[N+]([O-])c1ccc(N2CCN(S(=O)(=O)c3ccccc3)CC2)c2ncccc12,inactive
10,O=C(CSc1nc2ccccc2o1)Nc1ccc(O)cc1,"inconclusive: 89.1 µM [inhibitor, partial curve, poor fit]"
11,CCSc1nnc(NC(=O)CSc2nc3c(c(=O)n2C)SC(C)C3)s1 (configuration not stated),inactive
12,COc1ccccc1/C=C/C(=O)OCCN(C)C,inactive
13,Cn1c(SCC(=O)NC2CCCCC2)nnc1-c1ccc(F)cc1,inactive
14,COc1cc(C(C)=O)ccc1OCc1ccc(F)cc1Cl,"inconclusive: 44.7 µM [inhibitor, partial curve, poor fit]"
15,COc1ccc(CN2C[C@@H]3OCC(=O)N(c4ccccc4)[C@@H]3C2)cc1,"inconclusive: 100 µM [inhibitor, partial curve, poor fit]"
16,CCC(C)c1ccc(NC(=O)CC(C)C)cc1 (configuration not stated),inactive
17,Cc1ccccc1OCCNc1cc(N2CCN(CCO)CC2)ccc1[N+](=O)[O-],inactive
18,S=c1nc(C2CCCCC2)n(-c2ccccc2)[nH]1,"inconclusive: 39.8 µM [inhibitor, partial curve, poor fit]"
19,COc1ncccc1-c1cc2c(ccn2Cc2ccncc2)c(N2CCOCC2)n1,"inconclusive: 28.2 µM [inhibitor, single point]"
20,CC[n+]1ccc(C)c2cc(P(=O)(c3ccccc3)c3ccccc3)ccc21,"inconclusive: 50.1 µM [inhibitor, partial curve, poor fit]"
21,CC1CCCC(NC(=O)CN(C)S(=O)(=O)c2cnc[nH]2)C1C (configuration not stated),inactive

# Taken from above:
# Value of `Cc1ccc(NC(=O)CN2C(=O)N/C(=C/c3ccccc3OCc3cccc(C(=O)O)c3)C2=O)cc1` under Potency: inconclusive: 7.08 µM [inhibitor, partial curve, poor fit]
# Value of `C[C@@H](NC(=O)Cc1ccccc1)c1c(-c2ccc(F)cc2)noc1C(=O)O` under Potency: inconclusive: 28.2 µM [inhibitor, full curve]

# From PubChem BioAssay AID1671190 (National Center for Advancing Translational Sciences (NCATS), 2021)
